This is an account of results in article PMC12110804, “Molecular Characterization and Functional Analysis of Odorant-Binding Proteins in Ectropis grisescens” (International Journal of Molecular Sciences, 2025).

By UniProt entry, the sequences of proteins in these tests, tags left out. Residues count along the entry.
UniProt A0A977IVV0, 52-196 limits assumed: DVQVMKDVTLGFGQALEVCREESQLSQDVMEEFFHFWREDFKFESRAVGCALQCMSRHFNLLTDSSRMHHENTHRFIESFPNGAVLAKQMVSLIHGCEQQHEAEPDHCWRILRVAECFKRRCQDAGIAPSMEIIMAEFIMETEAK

The target in the assay is EgriGOBP2 (Ectropis grisescens, UniProt A0A977IVV0). The assay is described as follows: Fluorescence competitive binding assay (1-NPN displacement) with recombinant EgriGOBP2. As to conditions: read-out: EgriGOBP2 Ki; Ki = [IC50]/(1 + [1-NPN]/K1-NPN); 2 µM EgriGOBP2/1-NPN mixture, pH 7.4.

A number of entries come with more than one value. This is not the full list of results. There may be further records. Values given together differ, and nothing given here explains why; dose, time, organism, isomer or construct need not be as stated for each record.

With `C=C(C)[C@H]1CC=C(C)C(=O)C1` [(S)-(+)-carvone], the inhibition constant (Ki) (as a rule, a measure of affinity in units of concentration, obtained from inhibition or displacement) was < 10 µM and 4.84 µM.
